Results taken from PMC7819943, “Rice protein-binding microarrays: a tool to detect cis-acting elements near promoter regions in rice”.
The other results are listed elsewhere or left out.

The chains behind the UniProt entries cited, without tags or fusion partners.
UniProt Q0JBA9, entry or part of it: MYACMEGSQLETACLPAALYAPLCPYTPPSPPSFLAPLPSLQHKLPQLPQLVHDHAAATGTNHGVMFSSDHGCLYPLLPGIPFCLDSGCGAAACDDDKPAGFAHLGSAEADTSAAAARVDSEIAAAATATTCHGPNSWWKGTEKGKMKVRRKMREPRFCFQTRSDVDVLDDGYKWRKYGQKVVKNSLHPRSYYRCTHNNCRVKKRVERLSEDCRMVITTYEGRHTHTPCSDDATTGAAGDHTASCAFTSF

These sequences were tested against OsWRKY34 (Oryza sativa, UniProt Q0JBA9 1-250) (assay: protein-binding microarray (RPBM); PBS, 2% BSA, 51.3 ng/ul salmon testes DNA, 50 uM zinc acetate, 200 nM TF, 25 C, 1 h; high values mean tight binding). Settings: protein: recombinant; tags: N-terminal polyhistidine and DsRed monomer fusion (pET32a); label: CyDye5-dUTP incorporated in the synthesized complementary strand; 3' TTTTT single-stranded linker to array surface; dsDNA, one strand shown.
Outline: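 For the binding signal, per-feature fluorescence intensity was read in arbitrary units on an Axon 4000B scanner. Before scanning, a 2% BSA-blocked custom Agilent array made double-stranded with Cy5-dUTP was washed after 1 h at 25 °C with 200 nM protein and 50 µM zinc acetate. The proteins were Ni–NTA-purified transcription factors with N-terminal polyhistidine and DsRed fusions, expressed in E. coli BL21-CodonPlus.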
“TTTGACCTCGGCTCGATCGACCATCCCGCGGAGGAGACGACGGAGTCACCTAGTGCAG” was tested, and the binding signal was 9230 fluorescence intensity (a.u.).
“CACCTGTCACTCGCTCACACATCCCAGCGCTTTACAGTAGCGGAGTCACCTAGTGCAG” was tested, and the binding signal was 9690 fluorescence intensity (a.u.).
In the case of “GCAACTGCCCTACCATGTATGATGCTCCTGTATTCTGTCTCGGAGTCACCTAGTGCAG”, the binding signal is reported as 9210 fluorescence intensity (a.u.).
In the case of “CTAATTTTTAGACCTTGATTGGCTTCTTTCAGGCTGCTCACGGAGTCACCTAGTGCAG”, the binding signal is reported as 8060 fluorescence intensity (a.u.).
“CGCTCACCCACCGTCGCTCCGCCCGCCACCCGCCACCCACCGGAGTCACCTAGTGCAG” was tested, and the binding signal was 10900 fluorescence intensity (a.u.).
With “TTGTCCCCAGGCAATGACCGTATGACCAATTGCATTGTTTCGGAGTCACCTAGTGCAG” the binding signal was 8120 fluorescence intensity (a.u.).
“AATCTTCTAACCACCGTACGTTCTCCTCGCACTATAAATACGGAGTCACCTAGTGCAG” was tested, and the binding signal was 11500 fluorescence intensity (a.u.).
“TATATAATGAAATGTGGTGTGGTGGTGTAGATGGCGTTGTCGGAGTCACCTAGTGCAG” was tested, and the binding signal was 8160 fluorescence intensity (a.u.).
“CACTGGCATGTCATGTCACATTATCACGGCACCGGCCGGCCGGAGTCACCTAGTGCAG” was tested, and the binding signal was 8060 fluorescence intensity (a.u.).
“TCTTCCCCGTCGCCGCGCACCTCCCGATCCCTCCCTCCGCCGGAGTCACCTAGTGCAG” was tested, and the binding signal was 8360 fluorescence intensity (a.u.).
With “AATGATTACAACCTACCTCTTCTCAGCGGGGTGTCCATTACGGAGTCACCTAGTGCAG” the binding signal was 8260 fluorescence intensity (a.u.).
For “GTTGATCGCGCATGTTGGGTTTTCTTGGCTCCCGAATCCGCGGAGTCACCTAGTGCAG”, the binding signal was 9030 fluorescence intensity (a.u.).
“ACCACTTAATCTTTATCTTTGTTAGATTCATTACTACTATCGGAGTCACCTAGTGCAG” was tested, and the binding signal was 8310 fluorescence intensity (a.u.).
With “GCCTTTGAGCTCATTCTTCCCCATCTTCTCTTCTTATTCTCGGAGTCACCTAGTGCAG” the binding signal was 13300 fluorescence intensity (a.u.).
In the case of “TCTCTTTCTTTCCTTAACTCTCTTTCTCTACTCTCCACTCCGGAGTCACCTAGTGCAG”, the binding signal is reported as 9580 fluorescence intensity (a.u.).
In the case of “AAAACCCTGTGATTTTCTGCAACTTTCTACCTATTTTTTTCGGAGTCACCTAGTGCAG”, the binding signal is reported as 11200 fluorescence intensity (a.u.).
In the case of “CTATATATATACCTCCTCACCCCACAGGCCACACCCGTCCCGGAGTCACCTAGTGCAG”, the binding signal is reported as 9020 fluorescence intensity (a.u.).
In the case of “CTCTACTGTTCTGTGACCGTGCGCGTCGTCTGTCCGTCCACGGAGTCACCTAGTGCAG”, the binding signal is reported as 8070 fluorescence intensity (a.u.).
“CAATTGGTTGCATTTTTCTCCTCAACTATCTTAATACAATCGGAGTCACCTAGTGCAG” was tested, and the binding signal was 9830 fluorescence intensity (a.u.).
For “GCCACCGGCCGTTCTACATCTCGCGCGCGGCCTCCGGTCGCGGAGTCACCTAGTGCAG”, the binding signal was 9430 fluorescence intensity (a.u.).
For “TTTTTCTACATGTTCACAATCCATAGAATTTAAATTGCCACGGAGTCACCTAGTGCAG”, the binding signal was 8340 fluorescence intensity (a.u.).
With “ATTTTTTGGTAATTCGGTCTTTTCGGTCTATTCGGTTACCCGGAGTCACCTAGTGCAG” the binding signal was 8730 fluorescence intensity (a.u.).
For “TTGCTTATGGTGTTGCTGCTGGTCTATAAATTCATGTACACGGAGTCACCTAGTGCAG”, the binding signal was 9330 fluorescence intensity (a.u.).
